The values that follow come from the supplement of paper PMC11150407.

Among all 3,000 compounds or so, about 45 (2%) showed an effect of 50% or more. The list shows a part of the results.

For the test, the system named is MOLM1 and UCSD/AML1 (averaged). In words: cell viability relative to DMSO control (POC); higher = less growth inhibition. The note with it: 1 µM; 72 h. The method, then: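 Primary viability screen in the 3q26 EVI1-high AML cell lines MOLM1 and UCSD/AML1, compounds at 1 uM for 72 h. ATP CellTiter-Glo read-out given as percent viable over DMSO control (POC), averaged over duplicates. This mapping covers the TimTec NDL-3000 natural derivative library, whose compounds are identified by TimTec catalogue codes (ST...).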
By cell viability is commonly meant a read-out of living cells in per cent, often relative to untreated cells. For the molecule `NC(COCc1ccccc1)C(=O)O` (configuration not stated), the cell viability stood at 106%.

With `CCOC(=O)c1ccc(NC(=O)/C=C/C(=O)O)cc1`, the cell viability turned out to be 102%.

As to `CCOC(=O)c1cn(-c2ccc(F)cc2F)c2nc(Cl)c(F)cc2c1=O`, the cell viability stood at 94.8%. For the molecule `COc1cc(/C=C2\SC(=Nc3ccccc3)N(c3ccccc3)C2=O)cc(OC)c1O`, the cell viability amounted to 102%. Regarding `CCC/C(O)=C1\C(=O)CCCC1=NCCc1c(C)[nH]c2ccc(C)cc12`, the cell viability turned out to be 94.9%. Turning to `COc1ccc(C(C)=O)c(O)c1OC`, the cell viability turned out to be 93.4%. As for `COc1ccc(NC(=O)Cn2c(=O)cc(C(=O)N3CCOCC3)c3ccccc32)cc1Cl`, the cell viability was determined as 96.7%.

Regarding `COc1ccc(C(=O)Nc2ccc(-c3nc4cc(Cl)cc(Cl)c4o3)cc2)cc1OC`, the cell viability amounted to 104%. As for `CC(NC(=O)c1ccccc1)C(=O)O` (configuration not stated), the cell viability worked out at 99.5%. Regarding `COc1ccc2[nH]c(C)c(CCNC(=O)c3ccc(F)cc3)c2c1`, the cell viability stood at 96.8%. The value for `Cc1cc2c(cc1S(=O)(=O)N1CCCC1C(=O)O)NC(=O)CO2` (configuration not stated) was 99.9%.

On to `CC(=O)Nc1ccc(NC(=O)Cn2c(=O)cc(C(=O)N3CCOCC3)c3ccccc32)cc1`, for which the cell viability amounted to 96.3%.

`CC(C)(C)c1ccc(C(=O)NCC(=O)O)cc1`: the cell viability came to 95.9%.

Take `COc1ccc(/C=C/C(=O)c2ccc(O)cc2C)cc1`: the cell viability turned out to be 22.5%. As for `CCc1ccc2oc(=O)cc(CN3CCN(Cc4ccc(OC)c(OC)c4OC)CC3)c2c1`, the cell viability was found to be 61.1%. In the case of `Cc1cccc(Cn2c(SCc3ccccc3Cl)nc3c2c(=O)[nH]c(=O)n3C)c1`, the cell viability is 99.7%. For `COc1ccc2[nH]c(C)c(CCNC(=O)c3ccc(C)c([N+](=O)[O-])c3)c2c1`, the cell viability was found to be 96.9%.

Consider `Nc1ncnc2c1ncn2C1OC(COP(=O)(O)OP(=O)(O)O)C(O)C1O` (configuration not stated), for which the cell viability came to 107%. Take `Cc1nc2c(nc(SCc3nc(-c4ccccc4C)oc3C)n2C)c(=O)[nH]1`: the cell viability turned out to be 102%. Next, `CC(=O)Nc1cc2c(ncn2C(C)=O)c(=O)[nH]1`: 105%; `CCc1ccc2oc(-c3ccccc3)cc(=NCC(=O)NCC(=O)O)c2c1`: 102%. Take `CCOC(=O)c1ccc2[nH]c(-c3ccccc3)cc(=O)c2c1`: the cell viability is 7.45%. Regarding `COC(=O)c1c(O)cc(O)cc1O`, the cell viability is 112%.

Take `COc1cccc(C(=O)NCCc2c(C)[nH]c3ccccc23)c1`: the cell viability is 96.3%. For `Cc1ccc2occ(C3Nc4ccccc4NC4=C3C(=O)CC(c3ccccc3Cl)C4)c(=O)c2c1` (configuration not stated), the cell viability turned out to be 117%. In the case of `COc1ccc(NC(=O)CSc2nc3c(=O)[nH]cnc3n2C)cc1OC`, the cell viability was found to be 102%. Next, `COc1cc(C2NCCc3c2[nH]c2ccccc32)ccc1OC(C)C` (configuration not stated): 96.1%. In the case of `COc1ccc(NC(=O)CSc2nc3c(=O)[nH]cnc3n2-c2ccc(C)cc2)c(OC)c1`, the cell viability amounted to 102%. For the molecule `CC(=O)Nc1ccc(NC(=O)/C=C/c2ccccc2)cc1`, the cell viability turned out to be 98.3%. Next, `COc1cc(C(=O)N2CCCc3cccc(OCCNC(C)=O)c32)cc(OC)c1OC`: 98.7%; `CCOC(=O)CNC(=O)c1cc(Br)ccc1OCC(C)C`: 86.8%; `CC(=O)Nc1ccc(S(=O)(=O)N2CCCC2C(=O)O)cc1` (configuration not stated): 105%. Next, `Cc1nc2cccc(C(=O)NCCc3c(C)[nH]c4ccc(OC(F)(F)F)cc34)c2o1`: 112%; `COc1cc(Cc2nccc3cc(OC)c(OC)cc23)c(NC(=O)CSc2ncccc2C(=O)O)cc1OC`: 95.2%; `COC(=O)C1=C(C)NC2=C(C(=O)CC(c3ccc(OC)c(OC)c3)C2)C1c1cc(OC)c(OC)c(OC)c1` (configuration not stated): 101%. Turning to `COC(=O)c1ccc(C2C(C(=O)OC(C)C)=C(N)Oc3c2oc(CO)cc3=O)cc1` (configuration not stated), the cell viability was 101%.

Turning to `CCN(CC)C(=O)c1cc(=O)n(CC(=O)Nc2cccc(Cl)c2)c2ccccc12`, the cell viability came to 92.1%. Regarding `COc1cc(C(=O)NC2Cc3ccccc3NC2=O)cc(OC)c1OC` (configuration not stated), the cell viability was 109%. On to `O=C(O)/C=C/c1ccccc1OCc1ccccc1`, for which the cell viability amounted to 102%.

Consider `Cc1cc(C)c(NC(=O)Cn2c(=O)cc(C(=O)NCc3ccccc3)c3ccccc32)c(C)c1`, for which the cell viability amounted to 70.8%. For the molecule `COc1cc(C(=O)Nc2cccc(-c3nncn3C)c2)cc(OC)c1OC`, the cell viability is 107%. Next, `Cc1ccc2c(CN3CCN(Cc4ccc(Br)cc4F)CC3)cc(=O)oc2c1`: 100%; `COc1ccc(/C=C2\Oc3ccc(Cl)cc3C2=O)cc1OC`: 95.8%. For `O=C(O)/C=C/c1cccc(Cl)c1`, the cell viability stood at 96.5%. `CC(C)OC(=O)COc1ccc2c(=O)c(-c3ccc(Cl)cc3)coc2c1`: the cell viability came to 96.9%. Regarding `CCOc1cc2c(cc1OCC)C(c1ccc(Br)cc1)NCC2` (configuration not stated), the cell viability worked out at 83.4%. As for `CCOC(=O)/C(C#N)=C/c1ccccc1Br`, the cell viability came to 104%. Consider `C/C=C/c1ccc(OCC(=O)O)c(OC)c1`, for which the cell viability was found to be 100%.

With `O=C(Nc1c(C(=O)Nc2ccccc2)c2ccccc2n(Cc2ccc(F)cc2)c1=O)c1ccccc1`, the cell viability came out at 94.1%. Take `Cc1cc2c(C(C)C)c(O)c(O)c(C=Nc3cccc(N4CCCC4=O)c3)c2c(O)c1-c1c(C)cc2c(C(C)C)c(O)c(O)c(C=Nc3cccc(N4CCCC4=O)c3)c2c1O`: the cell viability stood at 92%. Regarding `Cc1cc(=O)n(C)c2ccccc12`, the cell viability is 106%. With `Cc1cc(=O)oc2cc(OC(C)C(=O)O)ccc12` (configuration not stated), the cell viability is 89.6%. Next, `O=C(Cn1c(=O)cc(C(=O)NCc2ccccc2)c2ccccc21)Nc1ccccc1`: 93.5%; `c1ccc(-c2csc(N3CCc4ccccc4C3)n2)cc1`: 104%.

With `CCc1ccc2oc(=O)cc(CN3CCN(Cc4nc(-c5ccc(C)cc5)oc4C)CC3)c2c1`, the cell viability came to 96.3%.

For the molecule `CCCNC(=O)c1cc(=O)n(CC(=O)Nc2ccc(F)cc2C)c2ccccc12`, the cell viability is 103%. Regarding `CCOc1ccc(-c2nc(CSc3nc4c(=O)[nH]cnc4n3C)c(C)o2)cc1OC`, the cell viability is 118%. Next, `CCOC(=O)C(C)Sc1nc(-c2ccccc2)cc(-c2ccccc2)c1C#N` (configuration not stated): 96.6%; `Cn1c(=O)c2c(nc(NCCOc3ccc(Cl)cc3)n2C)n(C)c1=O`: 106%.

Take `COc1cc(OC)cc(C(=O)NCCSCc2ccco2)c1`: the cell viability was found to be 90.2%. Regarding `CCc1ccc(-c2cc(-c3cc(OC)c(OC)c(OC)c3)[nH]c(=O)c2C#N)cc1`, the cell viability worked out at 96.9%. Consider `O=C(O)c1c[nH]c2ccccc12`, for which the cell viability stood at 102%.

Turning to `CCOC(=O)C(Cc1c[nH]c2ccccc12)NC(=O)COc1ccc(Br)cc1` (configuration not stated), the cell viability was 91.5%. Turning to `COC(=O)C1(C)CCC2(C)CCC3(C)C(=CCC4C5(C)CCC(O)C(C)(C)C5CCC43C)C2C1` (configuration not stated), the cell viability is 96.6%.

Regarding `COc1ccc(Cl)cc1NC(=O)CSc1nc2c(=O)[nH]cnc2n1-c1ccccc1`, the cell viability is 83.7%.

Take `Cc1ccc2c(CN3CCN(CC(=O)Nc4ccc(C)c(F)c4)CC3)cc(=O)oc2c1`: the cell viability is 89.1%. With `O=c1[nH]cnc2n[nH]nc12`, the cell viability amounted to 93.1%.

Turning to `O=C(O)c1cccc(Nc2nc(-c3ccc(Cl)cc3)nc3ccccc23)c1`, the cell viability was 90%.

As for `COC(=O)CCC1(C(=O)OC)CC2(CC2)N=N1` (configuration not stated), the cell viability came out at 98.8%.

On to `COc1cc(C(=O)Oc2ccccc2)cc(OC)c1OC`, for which the cell viability was found to be 108%. As to `COc1ccc2[nH]cc(CCNC(=O)c3nn(-c4ccccc4)nc3C)c2c1`, the cell viability is 107%. `CC(=O)CCC(=O)OC1CC(n2cnc3c(=O)[nH]c(NC(=O)C(C)C)nc32)OC1OP(=O)(O)Oc1ccc(Cl)cc1` (configuration not stated): the cell viability is 92.2%. For the molecule `COc1cc(/C=C/C(=O)c2cn(C)nc2C)cc(OC)c1OC`, the cell viability was found to be 100%.

As to `O=C(CNC(=O)c1ccccc1)OCC(=O)c1ccc(OC(=O)c2ccccc2)cc1`, the cell viability turned out to be 85.1%. As to `Cc1ccc(C)c(OCCn2cc(/C=C(\C#N)C(=O)N3CCc4ccccc4C3)c3ccccc32)c1`, the cell viability is 98.4%. Turning to `CC(=O)NC1=C(NCCc2c[nH]c3ccccc23)C(=O)c2ccccc2C1=O`, the cell viability was determined as 98.9%. For `CCC(=O)NCCc1c[nH]c2ccc(Cl)cc12`, the cell viability was 99.2%. For the molecule `CC(=O)Oc1cc2oc3c4ccccc4oc(=O)c3c2cc1OC(C)=O`, the cell viability amounted to 102%. In the case of `COc1cc(C(=O)CCNc2ccc(OCc3ccccc3)cc2)cc(OC)c1OC`, the cell viability amounted to 94.4%.

Consider `CCOC(=O)C1CCN(CNC(=O)c2ccc(OC)c(OC)c2)CC1`, for which the cell viability amounted to 98.2%. In the case of `COc1cc(C(=O)NCC23CC4CC(C2)CC(c2ccc(C)c(C)c2)(C4)C3)cc(OC)c1OC`, the cell viability stood at 94.6%. Take `CCCNC(=O)c1cc(=O)n(CC(=O)Nc2ccc(C)c(C)c2)c2ccccc12`: the cell viability came out at 83.9%. Next, `COc1ccc(/C=C2\CCc3ccccc3C2=O)cc1COc1c(Cl)cc(Cl)cc1Cl`: 114%. For the molecule `CCOc1cccc(C2NC(C)(C(=O)O)C3C(=O)N(c4ccccc4OC)C(=O)C23)c1O` (configuration not stated), the cell viability stood at 107%. In the case of `CC1=C(C(=O)OCc2ccccc2)C(c2coc3ccc(Cl)cc3c2=O)C2=C(CCCC2=O)N1` (configuration not stated), the cell viability stood at 101%. For `CC(=O)OC1CCC2(C)C(CCC3(C)C2C(=O)C=C2C4CC(C)(C(=O)OC5CCCCC5C)CCC4(C)CCC23C)C1(C)C` (configuration not stated), the cell viability was found to be 96.3%. As for `CCc1ccc2oc(=O)cc(CN3CCC4(CC3)OCCO4)c2c1`, the cell viability was found to be 109%. As for `COc1ccc(-c2cc(=O)c3ccccc3o2)c(OC)c1`, the cell viability was determined as 113%. Regarding `CC(C)=C(NC(=O)c1ccccc1)C(=O)NCCc1c(C)[nH]c2ccccc12`, the cell viability was found to be 100%. In the case of `CCn1c(SCC(=O)Nc2cccc(Cl)c2C)nc2c(=O)[nH]cnc21`, the cell viability is 97.9%. The value for `OCC1OC(OC2OC(CO)C(O)C(O)C2O)C(O)C(O)C1O` (configuration not stated) was 102%; that for `O=C(O)CCC(=O)NCCc1c[nH]c2ccccc12` was 97.5%; that for `CC(C)COC(=O)NCCc1c[nH]c2ccccc12` was 88.9%. The value for `COC(=O)c1ccc2c(c1)C(=O)/C(=C/c1ccc(OC)cc1OC)O2` was 96.6%; that for `CCOc1ccc2oc(=O)cc(CN3CCN(CC#N)CC3)c2c1` was 98.2%. Take `CCOc1cc(C2C3CCCCC3(O)CCN2CC(=O)Nc2cccc3ccccc23)ccc1O` (configuration not stated): the cell viability is 96.9%. For `CCOc1ccc2oc(=O)cc(CN3CCN(CC(=O)N(C)c4ccc(F)cc4)CC3)c2c1`, the cell viability was 96.2%.

As for `CC(=O)NC(Cc1c[nH]c2ccccc12)C(=O)NCCOc1cc(C)ccc1C(C)C` (configuration not stated), the cell viability was 74.2%. The value for `COc1ccc(-c2nc(C)c(C(C)=O)n2O)cc1OC` was 98.5%; that for `COc1cc(Cc2nccc3cc(OC)c(OC)cc23)c(NC(=O)c2ccc(F)cc2)cc1OC` was 109%. For `C=CCN(C(=O)CSc1nc2c(=O)[nH]cnc2n1-c1ccccc1)c1ccccc1`, the cell viability worked out at 98%.

As to `CCOc1ccc(C(F)(F)F)cc1N=Cc1c(O)c(O)c(C(C)C)c2cc(C)c(-c3c(C)cc4c(C(C)C)c(O)c(O)c(C=Nc5cc(C(F)(F)F)ccc5OCC)c4c3O)c(O)c12`, the cell viability stood at 105%.
